Laboratory results reported in PubChem BioAssay AID200 (DTP/NCI, 2004).
The list does not hold the whole screen: it is rich in T/C values a quarter to a half above the control, in often repeated tests (any T/C) and in doses without a T/C. Other doses and runs of a compound stand elsewhere. T/C is the treated group as % of the vehicle group. Some doses have a count of surviving animals in place of a T/C: the source files T/C as zero there, which appears to mark a toxic dose or a test without result, not a measured value. Some doses without a T/C left all or most animals alive at the check, yet need not have been tolerated: survival well below the control is almost never listed, so the zero probably covers shortened survival too. Survivors were counted at the toxicity check, usually on the fifth day, unless a day is given; later deaths do not show. Schedules are NCI's codes, read here as Q, the interval in days (D) or hours (H), X, the number of doses. Additions like (4×) stand for listed records that agree. Some doses were run more than once; their values stand side by side, smallest first. For survival time, the PubChem record calls one and a half times the control and up active, and a quarter to a half above the control has no call in these data; cut-offs in other NCI protocols can differ. Some T/C values carry the count of animals alive at the toxicity check (mostly the fifth day); where none is given, no animal had died by that day.

Tested on: B6C3F1 mice, B16 melanoma ip, median survival T/C
Assay: NCI In Vivo Anticancer Drug Screen. Data for tumor model B16 Melanoma (intraperitoneal) in B6C3F1 mice
Conditions: T/C endpoint: median survival time, higher T/C = longer survival
In short: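 Readout: survival or tumor size in treated mice relative to vehicle controls (T/C). Model uses transplantable tumors grown in mice.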

[1] = dose: 1.25 mg/kg/injection, schedule: Q01DX009 (ip), vehicle: water
[2] = dose: 200.0 mg/kg/injection, schedule: Q01DX009 (ip), vehicle: saline with Tween-80
[3] = dose: 400.0 mg/kg/injection, schedule: Q01DX009 (ip), vehicle: saline with Tween-80
[4] = dose: 24.0 mg/kg/injection, schedule: Q01DX009 (ip), vehicle: water
[5] = dose: 25.0 mg/kg/injection, schedule: Q01DX009 (ip), vehicle: saline with Tween-80
[6] = dose: 50.0 mg/kg/injection, schedule: Q01DX009 (ip), vehicle: saline with Tween-80
[7] = dose: 400.0 mg/kg/injection, schedule: Q01DX009 (ip), vehicle: Klucel (hydroxypropylcellulose) (HPC)
[8] = dose: 100.0 mg/kg/injection, schedule: Q01DX009 (ip), vehicle: saline with Tween-80

## COC(=O)NC1C(C)OC(OC2C/C=C(/C)C3C=CC4C(OC5CC(OC6CCC(OC7CC(O)C(OC8CCC(O)C(C)O8)C(C)O7)C(C)O6)C(OC(C)=O)C(C)O5)C(C)CC(C)C4C3(C)/C(O)=C3/C(=O)OC4(CC(C=O)=CC(O)C4/C=C\2C)C3=O)CC1(C)[N+](=O)[O-] (centres undefined)
dose: 0.76 mg/kg/injection, schedule: Q03HX024 (ip), vehicle: water
  T/C: 126 % of control
dose: 1.13 mg/kg/injection, schedule: Q03HX024 (ip), vehicle: water
  T/C: 140 % of control
[1]
  T/C: 133 % of control
  survivor count: 10 of 10
dose: 1.53 mg/kg/injection, schedule: Q03HX008 (ip), vehicle: water
  T/C: 146 % of control
dose: 2.0 mg/kg/injection, schedule: Q01DX009 (ip), vehicle: water
  T/C: 148 % of control
dose: 2.28 mg/kg/injection, schedule: Q03HX008 (ip), vehicle: water
  T/C: 129 % of control
dose: 2.4 mg/kg/injection, schedule: Q01DX005 (ip), vehicle: water
  T/C: 142 % of control
dose: 2.5 mg/kg/injection, schedule: Q01DX009 (ip), vehicle: water, evaluated on day 45
  T/C: 132 % of control
dose: 2.5 mg/kg/injection, schedule: Q01DX009 (ip), vehicle: water, evaluated on day 60
  T/C: 130, 153 [9 of 10 alive], 154 % of control
dose: 3.0 mg/kg/injection, schedule: Q01DX009 (ip), vehicle: water
  T/C: 130 [7 of 8 alive] and 145 % of control
dose: 3.6 mg/kg/injection, schedule: Q01DX005 (ip), vehicle: water
  T/C: 143 and 147 % of control
dose: 4.5 mg/kg/injection, schedule: Q01DX009 (ip), vehicle: water
  T/C: 133 % of control
dose: 5.0 mg/kg/injection, schedule: Q01DX009 (ip), vehicle: water, evaluated on day 45
  T/C: 175 % of control
dose: 5.0 mg/kg/injection, schedule: Q01DX009 (ip), vehicle: water, evaluated on day 60
  T/C: 135, 155, 158 % of control
dose: 5.3 mg/kg/injection, schedule: Q01DX005 (ip), vehicle: water
  T/C: 132 % of control [9 of 10 alive]
dose: 6.0 mg/kg/injection, schedule: Q01DX005 (ip), vehicle: water
  T/C: 137 % of control
dose: 6.1 mg/kg/injection, schedule: Q04DX003 (ip), vehicle: water
  T/C: 142 % of control
dose: 6.7 mg/kg/injection, schedule: Q01DX009 (ip), vehicle: water
  T/C: 138 % of control
dose: 7.58 mg/kg/injection, schedule: Q03HX008 (ip), vehicle: water
  survivor count: 2 of 10
dose: 8.4 mg/kg/injection, schedule: Q03HX024 (ip), vehicle: water
  survivor count: 0 of 10
dose: 9.0 mg/kg/injection, schedule: Q01DX005 (ip), vehicle: water
  T/C: 142 % of control
dose: 10.0 mg/kg/injection, schedule: Q01DX009 (ip), vehicle: water, evaluated on day 45
  T/C: 154 % of control
dose: 10.0 mg/kg/injection, schedule: Q01DX009 (ip), vehicle: water, evaluated on day 60
  T/C: 121, 146, 153, 179, 191 % of control
dose: 11.3 mg/kg/injection, schedule: Q03HX008 (ip), vehicle: water
  survivor count: 0 of 10
dose: 12.0 mg/kg/injection, schedule: Q01DX005 (ip), vehicle: water
  T/C: 149 % of control [9 of 10 alive]
dose: 15.0 mg/kg/injection, schedule: Q01DX009 (ip), vehicle: water
  T/C: 143 % of control
dose: 16.88 mg/kg/injection, schedule: Q03HX008 (ip), vehicle: water
  survivor count: 0 of 10
dose: 18.0 mg/kg/injection, schedule: Q01DX001 (iv), vehicle: water
  T/C: 126 % of control
dose: 18.0 mg/kg/injection, schedule: Q01DX005 (ip), vehicle: water
  survivor count: 2 of 10
dose: 20.0 mg/kg/injection, schedule: Q01DX009 (ip), vehicle: water
  survivor count: 2 of 10, 3 of 10, 6 of 10, 7 of 10
dose: 27.0 mg/kg/injection, schedule: Q01DX005 (ip), vehicle: water
  survivor count: 0 of 10 and 1 of 10
dose: 30.0 mg/kg/injection, schedule: Q01DX005 (ip), vehicle: water
  survivor count: 2 of 10
dose: 30.2 mg/kg/injection, schedule: Q04DX003 (ip), vehicle: water
  survivor count: 10 of 10
dose: 40.0 mg/kg/injection, schedule: Q01DX009 (ip), vehicle: water
  survivor count: 0 of 10
dose: 40.0 mg/kg/injection, schedule: Q01DX009 (sc), vehicle: water
  survivor count: 6 of 10
dose: 45.0 mg/kg/injection, schedule: Q04DX003 (ip), vehicle: water
  survivor count: 8 of 10
dose: 60.3 mg/kg/injection, schedule: Q01DX001 (ip), vehicle: water
  survivor count: 1 of 10
dose: 60.3 mg/kg/injection, schedule: Q01DX001 (iv), vehicle: water
  survivor count: 2 of 10
dose: 90.0 mg/kg/injection, schedule: Q01DX001 (ip), vehicle: water
  survivor count: 0 of 9
dose: 90.0 mg/kg/injection, schedule: Q01DX001 (iv), vehicle: water
  survivor count: 0 of 10
dose: 135.0 mg/kg/injection, schedule: Q01DX001 (ip), vehicle: water
  survivor count: 0 of 10

## O=[n+]1c2ccccc2n([O-])c2cc(Cl)ccc21
[2]
  survivor count: 9 of 10
[3]
  survivor count: 1 of 10

## COc1cc2cc3cc4cc(OC)c(OC)cc4c(C)[n+]3cc2cc1OC (tested in a mixture with another compound)
dose: 200.0 mg/kg/injection, schedule: Q01DX009 (ip), vehicle: saline
  survivor count: 10 of 10
dose: 400.0 mg/kg/injection, schedule: Q01DX009 (ip), vehicle: saline
  survivor count: 7 of 10

## COc1cccc2c1C(=O)c1c(O)c3c(c(O)c1C2=O)CC(O)(/C(C)=N/NC(=O)CCC(=O)N/N=C(\C)C1(O)Cc2c(O)c4c(c(O)c2C(OC2CC(N)C(O)C(C)O2)C1)C(=O)c1c(OC)cccc1C4=O)CC3OC1CC(N)C(O)C(C)O1 (centres undefined)
dose: 0.75 mg/kg/injection, schedule: Q01DX009 (ip), vehicle: water
  T/C: 147 % of control
dose: 12.0 mg/kg/injection, schedule: Q01DX009 (ip), vehicle: water
  T/C: 130 % of control
[4]
  T/C: 133 % of control
  survivor count: 10 of 10

## NCCCN=c1ccc2c3c1c(O)c1c(O)ccc(=O)c1c3[nH]n2CCNCCO
dose: 16.0 mg/kg/injection, schedule: Q01DX009 (ip), vehicle: water
  survivor count: 10 of 10
dose: 32.0 mg/kg/injection, schedule: Q01DX009 (ip), vehicle: water
  survivor count: 10 of 10

## CO[C@@]12[C@@H]3N[C@@H]3CN1C1=C(C(=O)C(N3CCCC3)=C(C)C1=O)[C@@H]2COC(N)=O
dose: 12.5 mg/kg/injection, schedule: Q01DX009 (ip), vehicle: saline with Tween-80
  survivor count: 10 of 10
[5]
  survivor count: 5 of 10
[6]
  survivor count: 2 of 10

## Oc1c(Cl)cc(Cl)cc1C=NCCSc1ccc(Cl)cc1
[7]
  survivor count: 0 of 10 and 5 of 10

## COC(=Nc1ccccc1)SSC(C)C
dose: 3.0 mg/kg/injection, schedule: Q01DX009 (ip), vehicle: saline with Tween-80
  T/C: 128 % of control
dose: 6.25 mg/kg/injection, schedule: Q01DX009 (ip), vehicle: saline with Tween-80
  survivor count: 10 of 10
[6]
  survivor count: 10 of 10
[8]
  survivor count: 3 of 10
[2]
  survivor count: 0 of 10

## O=C1N[C@H]2[C@H](CS[C@H]2CCCCC(=O)N(CCP(c2ccccc2)c2ccccc2)CCP(c2ccccc2)c2ccccc2)N1
dose: 100.0 mg/kg/injection, schedule: Q01DX009 (ip), vehicle: Klucel (hydroxypropylcellulose) (HPC)
  survivor count: 10 of 10
dose: 200.0 mg/kg/injection, schedule: Q01DX009 (ip), vehicle: Klucel (hydroxypropylcellulose) (HPC)
  survivor count: 7 of 10
[7]
  survivor count: 10 of 10

## CN(C)C1C(=O)C(C(=O)NP(=O)(NCCCO)N(CCCl)CCCl)=C(O)C2(O)C(=O)C3=C(O)c4c(O)cccc4C(C)(O)C3CC12 (centres undefined)
[5]
  T/C: 140 % of control
[6]
  T/C: 125 % of control
[8]
  T/C: 129 and 142 % of control
[2]
  T/C: 131 % of control
[3]
  survivor count: 10 of 10 (2×)
